The results in this text go back to PMC9635645.

No constants are given. Whether binding was seen depends on the method and setting. Binding seen in cells or lysates may run through a third protein. These calls come from enrichment with a bait or labelling near it, and not all partners need be listed.

The target of this assay is FLAG-BEAF-32B-EGFP (Drosophila). Briefly: affinity purification with mass spectrometry; anti-FLAG M2 magnetic beads on nuclear extracts of 4- to 20-h embryos with FLAG-BEAF-32B-EGFP; control embryos y1 w67c23; 2 experimental and 3 control samples; tandem mass spectrometry.

B1: SSRP, subunit of FACT (Facilitates Chromatin Transcription) (protein, UniProt Q05344 1-723)
chain: MTDSLEYNDINAEVRGVLCSGRLKMTEQNIIFKNTKTGKVEQISAEDIDLINSQKFVGTWGLRVFTKGGVLHRFTGFRDSEHEKLGKFIKAAYSQEMVEKEMCVKGWNWGTARFMGSVLSFDKESKTIFEVPLSHVSQCVTGKNEVTLEFHQNDDAPVGLLEMRFHIPAVESAEEDPVDKFHQNVMSKASVISASGESIAIFREIQILTPRGRYDIKIFSTFFQLHGKTFDYKIPMDSVLRLFMLPHKDSRQMFFVLSLDPPIKQGQTRYHYLVLLFAPDEETTIELPFSEAELRDKYEGKLEKEISGPVYEVMGKVMKVLIGRKITGPGNFIGHSGTAAVGCSFKAAAGYLYPLERGFIYIHKPPLHIRFEEISSVNFARSGGSTRSFDFEVTLKNGTVHIFSSIEKEEYAKLFDYITQKKLHVSNMGKDKSGYKDVDFGDSDNENEPDAYLARLKAEAREKEEDDDDGDSDEESTDEDFKPNENESDVAEEYDSNVESDSDDDSDASGGGGDSDGAKKKKEKKSEKKEKKEKKHKEKERTKKPSKKKKDSGKPKRATTAFMLWLNDTRESIKRENPGIKVTEIAKKGGEMWKELKDKSKWEDAAAKDKQRYHDEMRNYKPEAGGDSDNEKGGKSSKKRKTEPSPSKKANTSGSGFKSKEYISDDDSTSSDDEKDNEPAKKKSKPPSDGDAKKKKAKSESEPEESEEDSNASDEDEEDEASD
As for B1, the binding entry is reported as “binds”.
